{"source": "patent US7335352B1", "about": "“Method of identifying agents that inhibit quorum sensing activity of gamma-proteobacteria” (priority 2003, dated 2008)", "key": {"P. aeruginosa PAO1 [1]": {"test_system": "P. aeruginosa PAO1", "experiment": "Accumulation of endogenous 3OC12HSL by P. aeruginosa PAO1 cultures in LB", "assay_type": "cell-based, Pseudomonas aeruginosa", "details": "LB at 30° C."}, "P. aeruginosa PAO1 [2]": {"test_system": "P. aeruginosa PAO1", "experiment": "LC/APCI-MS analysis of culture fluid of P. aeruginosa PAO1 growing on 3OC12HSL", "assay_type": "cell-based, Pseudomonas aeruginosa"}}, "data": [{"smiles": "CCCCCCCCCC(=O)CC(=O)N[C@H]1CCOC1=O", "note": "[3OC12-L-HSL, N-3-oxododecanoyl-L-homoserine lactone]", "values": [{"measurement": "Accumulated endogenous 3OC12HSL", "setting": "P. aeruginosa PAO1 [1]; PAO1 constitutively expressing PvdQ", "value": "did not accumulate any of this quorum signal above the threshold of detection"}, {"measurement": "Accumulated endogenous 3OC12HSL", "setting": "P. aeruginosa PAO1 [1]; wild-type PAO1", "value": "> 6", "unit": "µM"}, {"measurement": "Remaining substrate concentration", "setting": "P. aeruginosa PAO1 [2]; by early stationary phase, MES 5.5 medium, 1 mM 3OC12HSL sole energy source", "value": "less than 125 nM"}]}, {"smiles": "CCCCCCCCCC(=O)CC(=O)NC(CCO)C(=O)O", "note": "(centres unmarked) [3OC12-homoserine]", "values": [{"measurement": "Concentration relative to the initial AHL concentration", "setting": "P. aeruginosa PAO1 [2]; throughout growth on 1 mM 3OC12HSL", "value": "≤ 0.1", "unit": "%"}]}, {"smiles": "N[C@H]1CCOC1=O", "note": "[HSL, homoserine lactone]", "values": [{"measurement": "Maximum accumulated concentration", "setting": "P. aeruginosa PAO1 [2]; just before the onset of stationary phase, growth on 3OC12HSL", "value": "ca. 500 μM"}]}]}
